Measurements: the supplement of paper PMC10849652
Some of the results follow.

Chains of the proteins cited; added tags and fusions are not shown. Lines headed by an entry give the natural chain unless they say otherwise; changes in a name come on top.
UniProt Q9NR09, whole entry, looked up: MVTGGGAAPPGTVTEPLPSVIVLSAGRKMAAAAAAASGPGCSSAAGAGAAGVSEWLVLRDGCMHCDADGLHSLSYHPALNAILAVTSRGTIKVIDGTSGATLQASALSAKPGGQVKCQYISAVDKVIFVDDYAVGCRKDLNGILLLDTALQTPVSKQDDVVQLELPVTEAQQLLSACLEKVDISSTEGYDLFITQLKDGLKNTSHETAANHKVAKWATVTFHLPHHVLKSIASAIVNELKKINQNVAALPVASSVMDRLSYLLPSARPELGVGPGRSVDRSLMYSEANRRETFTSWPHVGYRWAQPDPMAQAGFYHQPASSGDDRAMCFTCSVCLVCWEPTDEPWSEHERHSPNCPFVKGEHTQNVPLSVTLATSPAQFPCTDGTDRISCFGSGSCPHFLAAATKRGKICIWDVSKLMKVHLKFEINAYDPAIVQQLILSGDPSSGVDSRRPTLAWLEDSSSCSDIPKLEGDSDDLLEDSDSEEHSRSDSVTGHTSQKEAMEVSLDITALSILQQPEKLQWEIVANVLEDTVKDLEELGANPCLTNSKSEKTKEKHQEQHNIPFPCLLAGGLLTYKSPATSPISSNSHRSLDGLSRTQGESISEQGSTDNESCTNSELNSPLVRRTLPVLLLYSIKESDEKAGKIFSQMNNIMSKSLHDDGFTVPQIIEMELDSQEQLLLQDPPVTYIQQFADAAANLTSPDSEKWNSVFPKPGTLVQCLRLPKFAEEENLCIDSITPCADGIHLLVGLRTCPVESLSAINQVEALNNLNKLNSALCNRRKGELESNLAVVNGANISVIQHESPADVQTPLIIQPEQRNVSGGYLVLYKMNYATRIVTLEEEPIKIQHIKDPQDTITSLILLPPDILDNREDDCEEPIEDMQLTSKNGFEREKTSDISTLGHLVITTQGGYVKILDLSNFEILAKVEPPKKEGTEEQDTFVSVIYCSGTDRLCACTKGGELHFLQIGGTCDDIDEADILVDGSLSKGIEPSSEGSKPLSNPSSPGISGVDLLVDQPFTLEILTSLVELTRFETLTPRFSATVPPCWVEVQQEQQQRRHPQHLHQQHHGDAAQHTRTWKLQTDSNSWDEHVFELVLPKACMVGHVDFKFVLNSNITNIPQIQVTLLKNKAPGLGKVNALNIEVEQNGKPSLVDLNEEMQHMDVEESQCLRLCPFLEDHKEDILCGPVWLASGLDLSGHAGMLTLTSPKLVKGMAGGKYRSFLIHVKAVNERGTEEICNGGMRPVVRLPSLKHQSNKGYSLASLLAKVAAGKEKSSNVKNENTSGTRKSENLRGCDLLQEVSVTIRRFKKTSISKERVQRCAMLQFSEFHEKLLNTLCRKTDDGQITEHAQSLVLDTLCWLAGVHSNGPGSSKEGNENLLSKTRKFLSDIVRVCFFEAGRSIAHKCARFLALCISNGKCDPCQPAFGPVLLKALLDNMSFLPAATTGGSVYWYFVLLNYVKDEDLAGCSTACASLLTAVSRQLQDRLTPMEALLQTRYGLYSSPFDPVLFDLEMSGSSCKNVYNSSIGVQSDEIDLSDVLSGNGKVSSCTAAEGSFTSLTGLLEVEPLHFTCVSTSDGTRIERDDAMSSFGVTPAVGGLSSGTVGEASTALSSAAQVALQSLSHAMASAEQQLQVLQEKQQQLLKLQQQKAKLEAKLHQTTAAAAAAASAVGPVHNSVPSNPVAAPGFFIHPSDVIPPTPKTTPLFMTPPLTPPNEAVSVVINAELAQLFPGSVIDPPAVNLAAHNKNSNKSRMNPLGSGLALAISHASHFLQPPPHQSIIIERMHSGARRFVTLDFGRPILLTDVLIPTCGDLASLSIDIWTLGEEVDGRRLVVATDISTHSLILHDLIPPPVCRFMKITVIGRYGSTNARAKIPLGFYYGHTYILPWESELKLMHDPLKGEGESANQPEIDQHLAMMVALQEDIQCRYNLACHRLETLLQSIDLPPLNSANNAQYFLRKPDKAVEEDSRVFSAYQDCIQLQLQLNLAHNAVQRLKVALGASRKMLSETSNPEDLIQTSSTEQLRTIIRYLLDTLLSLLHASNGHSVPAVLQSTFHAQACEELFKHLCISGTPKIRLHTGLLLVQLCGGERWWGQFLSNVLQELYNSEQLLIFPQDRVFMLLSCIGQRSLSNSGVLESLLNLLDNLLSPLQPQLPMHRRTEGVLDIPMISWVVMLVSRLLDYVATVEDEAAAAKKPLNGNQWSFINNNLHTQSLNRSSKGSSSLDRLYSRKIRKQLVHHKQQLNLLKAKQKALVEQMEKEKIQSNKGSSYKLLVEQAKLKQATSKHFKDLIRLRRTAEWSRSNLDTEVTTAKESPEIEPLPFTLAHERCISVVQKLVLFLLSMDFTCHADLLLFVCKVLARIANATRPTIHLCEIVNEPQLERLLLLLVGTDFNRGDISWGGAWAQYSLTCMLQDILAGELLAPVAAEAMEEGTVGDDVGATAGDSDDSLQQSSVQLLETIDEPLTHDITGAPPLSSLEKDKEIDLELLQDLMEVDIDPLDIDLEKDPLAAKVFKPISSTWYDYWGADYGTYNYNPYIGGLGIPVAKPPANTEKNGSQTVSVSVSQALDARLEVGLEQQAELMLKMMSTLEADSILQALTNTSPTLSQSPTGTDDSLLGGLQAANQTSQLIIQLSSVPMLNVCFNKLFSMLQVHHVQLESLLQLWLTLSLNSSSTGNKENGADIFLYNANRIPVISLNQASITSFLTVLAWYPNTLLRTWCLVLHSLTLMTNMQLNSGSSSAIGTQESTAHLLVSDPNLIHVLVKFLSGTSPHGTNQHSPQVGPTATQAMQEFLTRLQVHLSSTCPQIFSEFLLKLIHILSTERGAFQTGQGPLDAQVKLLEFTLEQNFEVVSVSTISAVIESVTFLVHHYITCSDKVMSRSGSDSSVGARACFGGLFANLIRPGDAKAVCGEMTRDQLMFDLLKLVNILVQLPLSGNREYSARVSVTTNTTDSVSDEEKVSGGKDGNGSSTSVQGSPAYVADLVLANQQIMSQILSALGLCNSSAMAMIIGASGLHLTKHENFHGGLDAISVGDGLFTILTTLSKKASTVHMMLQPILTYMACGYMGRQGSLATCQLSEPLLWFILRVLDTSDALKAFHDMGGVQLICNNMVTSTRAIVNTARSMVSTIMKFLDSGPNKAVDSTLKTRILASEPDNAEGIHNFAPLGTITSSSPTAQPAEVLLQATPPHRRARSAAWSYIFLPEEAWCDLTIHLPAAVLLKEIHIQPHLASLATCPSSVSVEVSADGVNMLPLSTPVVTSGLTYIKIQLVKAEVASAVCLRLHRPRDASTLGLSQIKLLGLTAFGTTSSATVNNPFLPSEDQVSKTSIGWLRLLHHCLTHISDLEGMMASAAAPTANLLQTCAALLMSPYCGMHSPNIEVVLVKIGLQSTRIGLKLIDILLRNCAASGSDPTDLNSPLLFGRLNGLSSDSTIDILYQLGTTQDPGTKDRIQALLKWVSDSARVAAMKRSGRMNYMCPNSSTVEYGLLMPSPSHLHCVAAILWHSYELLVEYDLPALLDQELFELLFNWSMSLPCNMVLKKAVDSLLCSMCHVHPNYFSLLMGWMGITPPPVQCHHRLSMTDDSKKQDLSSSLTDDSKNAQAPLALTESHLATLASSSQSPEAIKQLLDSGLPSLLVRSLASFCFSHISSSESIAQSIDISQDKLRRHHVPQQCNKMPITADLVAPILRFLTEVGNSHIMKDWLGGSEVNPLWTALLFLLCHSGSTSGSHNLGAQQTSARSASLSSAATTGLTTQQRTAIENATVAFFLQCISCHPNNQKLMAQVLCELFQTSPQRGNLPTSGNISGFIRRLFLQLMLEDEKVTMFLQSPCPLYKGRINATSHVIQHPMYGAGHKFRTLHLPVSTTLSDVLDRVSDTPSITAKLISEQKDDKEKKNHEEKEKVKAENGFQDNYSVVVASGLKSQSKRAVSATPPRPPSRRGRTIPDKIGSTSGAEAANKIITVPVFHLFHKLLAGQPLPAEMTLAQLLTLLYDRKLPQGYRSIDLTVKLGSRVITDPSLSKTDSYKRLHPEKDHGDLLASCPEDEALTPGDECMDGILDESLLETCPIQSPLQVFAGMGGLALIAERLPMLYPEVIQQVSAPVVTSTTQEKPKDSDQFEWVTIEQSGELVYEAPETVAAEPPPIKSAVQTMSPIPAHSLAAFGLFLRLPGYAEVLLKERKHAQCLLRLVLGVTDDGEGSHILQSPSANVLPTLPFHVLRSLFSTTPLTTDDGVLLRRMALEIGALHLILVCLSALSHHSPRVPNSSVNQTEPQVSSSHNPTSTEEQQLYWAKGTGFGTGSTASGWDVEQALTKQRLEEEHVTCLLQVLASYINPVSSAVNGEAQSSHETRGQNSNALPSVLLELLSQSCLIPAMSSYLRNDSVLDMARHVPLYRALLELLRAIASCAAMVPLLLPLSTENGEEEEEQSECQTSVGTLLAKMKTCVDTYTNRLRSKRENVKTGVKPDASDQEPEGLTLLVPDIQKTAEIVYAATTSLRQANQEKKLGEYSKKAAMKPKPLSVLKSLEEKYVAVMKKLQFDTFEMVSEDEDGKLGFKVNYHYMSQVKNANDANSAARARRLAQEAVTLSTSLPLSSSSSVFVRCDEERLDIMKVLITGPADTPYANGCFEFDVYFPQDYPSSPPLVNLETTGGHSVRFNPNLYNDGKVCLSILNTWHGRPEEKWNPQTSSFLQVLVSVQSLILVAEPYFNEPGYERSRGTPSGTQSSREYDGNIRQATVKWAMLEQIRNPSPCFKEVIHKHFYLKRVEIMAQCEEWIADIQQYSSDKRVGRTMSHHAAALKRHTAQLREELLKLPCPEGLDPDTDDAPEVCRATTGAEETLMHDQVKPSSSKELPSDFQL
UniProt P54687: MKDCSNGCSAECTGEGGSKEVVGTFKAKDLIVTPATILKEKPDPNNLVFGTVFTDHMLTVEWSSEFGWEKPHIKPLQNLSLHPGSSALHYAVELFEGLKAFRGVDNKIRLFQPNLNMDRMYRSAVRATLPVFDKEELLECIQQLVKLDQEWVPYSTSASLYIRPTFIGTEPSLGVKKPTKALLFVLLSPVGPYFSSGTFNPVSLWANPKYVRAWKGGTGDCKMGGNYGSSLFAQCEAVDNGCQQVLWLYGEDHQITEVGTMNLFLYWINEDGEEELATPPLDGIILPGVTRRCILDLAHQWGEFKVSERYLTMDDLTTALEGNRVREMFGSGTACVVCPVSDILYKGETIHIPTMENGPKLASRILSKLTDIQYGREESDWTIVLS
UniProt O95429: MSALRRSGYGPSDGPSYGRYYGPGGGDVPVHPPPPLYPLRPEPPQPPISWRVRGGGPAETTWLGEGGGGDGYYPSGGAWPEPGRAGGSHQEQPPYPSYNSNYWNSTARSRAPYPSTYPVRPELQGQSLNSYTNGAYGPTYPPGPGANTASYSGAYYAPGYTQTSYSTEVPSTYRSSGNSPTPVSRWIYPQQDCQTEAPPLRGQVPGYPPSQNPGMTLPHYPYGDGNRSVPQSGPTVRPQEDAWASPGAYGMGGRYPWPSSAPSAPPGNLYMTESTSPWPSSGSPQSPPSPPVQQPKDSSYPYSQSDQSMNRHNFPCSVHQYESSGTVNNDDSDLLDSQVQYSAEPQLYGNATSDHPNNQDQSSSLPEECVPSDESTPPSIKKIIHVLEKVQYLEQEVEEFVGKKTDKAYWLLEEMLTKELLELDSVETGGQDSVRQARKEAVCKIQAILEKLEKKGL
UniProt Q9UL15: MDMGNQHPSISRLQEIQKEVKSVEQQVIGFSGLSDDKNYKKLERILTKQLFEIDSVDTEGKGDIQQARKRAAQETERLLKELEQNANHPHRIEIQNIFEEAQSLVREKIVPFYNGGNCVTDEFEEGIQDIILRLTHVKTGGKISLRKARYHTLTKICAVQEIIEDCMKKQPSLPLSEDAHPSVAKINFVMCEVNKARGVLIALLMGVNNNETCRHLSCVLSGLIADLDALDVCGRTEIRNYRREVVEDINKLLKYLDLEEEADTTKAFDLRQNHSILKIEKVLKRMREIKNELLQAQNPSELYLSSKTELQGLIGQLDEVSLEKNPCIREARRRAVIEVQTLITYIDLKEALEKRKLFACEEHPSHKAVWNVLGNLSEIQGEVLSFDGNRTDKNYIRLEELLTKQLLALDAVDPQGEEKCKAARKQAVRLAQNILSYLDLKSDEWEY
UniProt Q67FW5: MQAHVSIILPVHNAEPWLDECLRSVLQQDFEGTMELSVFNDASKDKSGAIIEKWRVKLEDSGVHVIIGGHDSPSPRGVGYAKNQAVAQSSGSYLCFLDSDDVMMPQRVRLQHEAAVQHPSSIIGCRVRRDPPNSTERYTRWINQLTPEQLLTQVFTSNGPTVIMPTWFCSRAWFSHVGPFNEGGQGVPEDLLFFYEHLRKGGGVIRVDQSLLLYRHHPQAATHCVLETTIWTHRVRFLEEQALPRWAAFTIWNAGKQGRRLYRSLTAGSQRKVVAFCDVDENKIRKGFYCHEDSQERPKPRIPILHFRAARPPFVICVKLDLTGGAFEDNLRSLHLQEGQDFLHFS
UniProt Q9H3K6: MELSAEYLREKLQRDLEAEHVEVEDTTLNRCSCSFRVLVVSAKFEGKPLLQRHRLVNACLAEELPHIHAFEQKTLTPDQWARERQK

Tests used:
Assay in all cases: log2 fold change, soluble protein after heating vs DMSO (PISA); higher = thermal stabilisation; K562 cells, 10 uM, 30 min; active = over 0.2 and 3.5 SD of the protein, either way, in both replicates (recomputed)
[1] = compound: COC1=CC=C(C=C1)CN2C=CC3=C2C=C(C=C3)C(=O)NO
How it was run: (§1)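 Thermal stability values are relative to control samples and come from duplicates. They are expressed as log2 fold changes. For measurement, K562 cells (2×10^6 cells/mL) received 10 μM compound for 30 min, and aliquots were heated for 3 min over 48°C-58°C, pooled, and extracted at 4°C in PBS with 0.5% NP-40. Soluble protein, the supernatant after 21,000xg for 90 min, was quantified by TMTpro 16plex LC-MS/MS with equalised channel sums.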

filanesib = compound: CON(C)C(=O)N1N=C(c2cc(F)ccc2F)S[C@@]1(CCCN)c1ccccc1 [filanesib]
How it was run: as §1

zotarolimus = compound: CO[C@H]1C[C@@H]2CC[C@@H](C)[C@@](O)(O2)C(=O)C(=O)N2CCCC[C@H]2C(=O)O[C@H]([C@H](C)C[C@@H]2CC[C@H](n3cnnn3)[C@H](OC)C2)CC(=O)[C@H](C)/C=C(\C)[C@@H](O)[C@@H](OC)C(=O)[C@H](C)C[C@H](C)/C=C/C=C/C=C/1C [zotarolimus]
How it was run: as §1

idasanutlin = compound: COc1cc(C(=O)O)ccc1NC(=O)[C@@H]1N[C@@H](CC(C)(C)C)[C@](C#N)(c2ccc(Cl)cc2F)[C@H]1c1cccc(Cl)c1F [idasanutlin]
How it was run: as §1

alisertib = compound: COc1cc(Nc2ncc3c(n2)-c2ccc(Cl)cc2C(c2c(F)cccc2OC)=NC3)ccc1C(=O)O [alisertib]
How it was run: as §1

[2] = compound: COc1cc2nc(-c3cc(F)ccc3O)nc(N[C@@H]3CNC[C@H]3C(C)(C)O)c2cc1OC
How it was run: as §1

gefitinib = compound: COc1cc2ncnc(Nc3ccc(F)c(Cl)c3)c2cc1OCCCN1CCOCC1 [gefitinib]
How it was run: as §1

[3] = compound: COc1cccc2cc(-c3nc([C@H]4CC[C@H](C(=O)O)CC4)n4ncnc(N)c34)[nH]c12
How it was run: as §1

lapatinib = compound: CS(=O)(=O)CCNCc1ccc(-c2ccc3ncnc(Nc4ccc(OCc5cccc(F)c5)c(Cl)c4)c3c2)o1 [lapatinib]
How it was run: as §1

pictilisib = compound: CS(=O)(=O)N1CCN(Cc2cc3nc(-c4cccc5[nH]ncc45)nc(N4CCOCC4)c3s2)CC1 [pictilisib]
How it was run: as §1

Measured: log2 fold change

BIRC6 (UniProt Q9NR09)
inactive: [1] 0 | filanesib 0.024 | zotarolimus 0.02 | idasanutlin -0.065 | alisertib -0.061 | [2] 0.011 | gefitinib -0.024 | [3] -0.028 | lapatinib 0.059 | pictilisib 0.025

BCL2L13 (UniProt Q9BXK5)
inactive: [1] -0.001 | filanesib -0.12 | zotarolimus 0.065 | idasanutlin -0.026 | alisertib -0.047 | [2] 0.002 | gefitinib -0.028 | [3] 0.06 | lapatinib 0.008 | pictilisib 0.016

BCAT1 (UniProt P54687)
inactive: [1] 0.023 | filanesib -0.008 | zotarolimus 0.003 | idasanutlin 0.005 | alisertib -0.029 | [2] 0.018 | gefitinib -0.017 | [3] 0.044 | lapatinib -0.02 | pictilisib 0.001

BAG4 (UniProt O95429)
inactive: [1] 0.025 | filanesib 0.001 | zotarolimus 0 | idasanutlin 0.018 | alisertib -0.003 | [2] -0.064 | gefitinib 0.032 | [3] 0.044 | lapatinib -0.001 | pictilisib 0.047

BAG5 isoform 2 (UniProt Q9UL15)
inactive: [1] -0.002 | filanesib 0.045 | zotarolimus 0.013 | idasanutlin -0.027 | alisertib 0.028 | [2] 0.113 | gefitinib -0.132 | [3] -0.007 | lapatinib -0.057 | pictilisib 0.019

BLOC1S5 (UniProt Q8TDH9)
inactive: [1] -0.018 | filanesib -0.068 | zotarolimus -0.059 | idasanutlin 0.005 | alisertib -0.033 | [2] 0.052 | gefitinib -0.025 | [3] 0.064 | lapatinib 0.017 | pictilisib 0.041

B3GNTL1 (UniProt Q67FW5)
inactive: [1] -0.033 | filanesib -0.006 | zotarolimus -0.009 | idasanutlin -0.05 | alisertib -0.028 | [2] 0.099 | gefitinib -0.04 | [3] 0.023 | lapatinib 0.028 | pictilisib 0.008

BAHCC1 (UniProt Q9P281)
inactive: [1] -0.443 | filanesib 0.032 | zotarolimus 0 | idasanutlin -0.042 | alisertib 1.11 | [2] 0.239 | gefitinib 0.054 | [3] 0.207 | lapatinib -0.227 | pictilisib 0.164

B3GALT6 (UniProt Q96L58)
inactive: [1] -0.028

BRAT1 (UniProt Q6PJG6)
inactive: [1] -0.085 | filanesib -0.013 | zotarolimus 0.13 | idasanutlin -0.062 | alisertib -0.071 | [2] 0.01 | gefitinib 0.037 | [3] -0.022 | lapatinib -0.052 | pictilisib -0.005

BCOR (UniProt Q6W2J9)
inactive: [1] -0.487 | filanesib 0.136 | zotarolimus -0.294

BICD1 (UniProt Q96G01)
inactive: [1] -0.02 | filanesib 0.038 | zotarolimus 0.071 | idasanutlin 0.035 | alisertib 0.04 | [2] 0.019 | gefitinib -0.004 | [3] -0.105 | lapatinib 0.022 | pictilisib 0.12

BOLA2 (UniProt Q9H3K6)
inactive: [1] -0.042 | filanesib -0.005 | zotarolimus -0.01 | idasanutlin -0.061 | alisertib -0.102 | [2] -0.037 | gefitinib -0.001 | [3] 0.006 | lapatinib -0.01 | pictilisib 0.045

BCKDHB (UniProt P21953)
inactive: [1] -0.011 | filanesib -0.091 | zotarolimus -0.057 | idasanutlin -0.035 | alisertib 0.022 | [2] -0.042 | gefitinib 0.059 | [3] 0.007 | lapatinib -0.029 | pictilisib 0.178

BCLAF1 (UniProt Q9NYF8)
inactive: [1] -0.107 | filanesib 0.103 | zotarolimus 0.068 | idasanutlin 0.127 | alisertib 0.074 | [2] -0.215 | gefitinib 0.01 | [3] 0.033 | lapatinib 0.101 | pictilisib -0.109

BLOC1S6 (UniProt Q9UL45)
inactive: [1] 0.019 | filanesib -0.078 | zotarolimus -0.004 | idasanutlin -0.11 | alisertib -0.035 | [2] 0.025 | gefitinib -0.114 | [3] 0.111 | lapatinib 0.094

Quoted from the entries so far (4 entries):
BCOR (UniProt Q6W2J9)
inactive: [1] -0.487 | filanesib 0.136 | zotarolimus -0.294

BICD1 (UniProt Q96G01)
inactive: [1] -0.02 | filanesib 0.038 | zotarolimus 0.071 | idasanutlin 0.035 | alisertib 0.04 | [2] 0.019 | gefitinib -0.004 | [3] -0.105 | lapatinib 0.022 | pictilisib 0.12

BOLA2 (UniProt Q9H3K6)
inactive: [1] -0.042 | filanesib -0.005 | zotarolimus -0.01 | idasanutlin -0.061 | alisertib -0.102 | [2] -0.037 | gefitinib -0.001 | [3] 0.006 | lapatinib -0.01 | pictilisib 0.045

BCKDHB (UniProt P21953)
inactive: [1] -0.011 | filanesib -0.091 | zotarolimus -0.057 | idasanutlin -0.035 | alisertib 0.022 | [2] -0.042 | gefitinib 0.059 | [3] 0.007 | lapatinib -0.029 | pictilisib 0.178
